Paper PMC8095187

Legend:
Assay in all cases: co-IP; L6 myoblasts stably expressing FLAG-Tmod3-WT or mutants, serum starved 2 hours, with or without 2 mM AICAR for 30 minutes; anti-FLAG M2 affinity gel; blots with antibodies against tropomyosin isoforms
[1] = biological target: T1, FLAG-Tmod3-S25D (stably expressed in L6 myoblasts) (mouse) (UniProt Q9JHJ0)
T1 sequence: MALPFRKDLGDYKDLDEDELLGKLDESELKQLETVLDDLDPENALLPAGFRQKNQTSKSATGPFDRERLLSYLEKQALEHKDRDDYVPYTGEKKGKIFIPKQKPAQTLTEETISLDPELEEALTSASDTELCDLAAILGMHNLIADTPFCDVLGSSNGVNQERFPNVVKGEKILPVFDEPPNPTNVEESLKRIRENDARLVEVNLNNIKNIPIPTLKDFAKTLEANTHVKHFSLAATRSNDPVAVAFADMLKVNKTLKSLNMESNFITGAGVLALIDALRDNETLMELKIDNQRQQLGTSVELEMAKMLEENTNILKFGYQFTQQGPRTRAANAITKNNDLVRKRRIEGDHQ

[2] = biological target: T2, FLAG-Tmod3-WT (stably expressed in L6 myoblasts) (mouse) (UniProt Q9JHJ0)
T2 sequence: T1 sequence with D25S

[3] = biological target: T3, FLAG-Tmod3-S25A (stably expressed in L6 myoblasts) (mouse) (UniProt Q9JHJ0)
T3 sequence: T1 sequence with D25A

Measured: binding

Tpm1.6 (tropomyosin isoform) (rat (endogenous in L6 myoblasts))
binds: all assays above

Tpm1.7 (tropomyosin isoform) (rat (endogenous in L6 myoblasts))
binds: all assays above

Positions count from the first letter of the chain named. Results are given in words; binding and its absence hold for the method and conditions named. Binding seen in cells or lysates may run through a third protein. Binding can be weak; no strength is given. Where a sequence is shown, tags or fusion partners need not be part of it.
